# PubChem BioAssay AID504465 (National Center for Advancing Translational Sciences (NCATS), 2011)
# The campaign covered roughly 2,100 compounds. About 210 (10%) were called active. Inconclusive means that the source gave no clear call. Such entries were picked first, then a sample of the others. The call rests on the fitted dose curve; in most records, active means well fitted inhibition curve with a large enough effect; inconclusive means small, poorly fitted or top-dose-only effect, or effect the other way; inactive means no such curve, though single readings can be large or run the other way. Where the call is inconclusive, the potency comes from a doubtful curve fit.
# Test: IN Cell qHTS Assay for Inhibitors of the mTORC1 Signaling Pathway in MEF (Tsc2-/-, p53-/-) Cells: Sytravon; further: nearly all actives have a fitted effect of over 60% in size
# Conditions: phospho-rpS6 immunofluorescence, 24 h; activity, negative = inhibition: at 38.3 µM (top of the series)
# Summary of the method: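 Immunofluorescence of rpS6 phosphorylation (Ser235/236) in mouse embryonic fibroblasts lacking Tsc2 and p53, after 24 h compound exposure; Hoechst-normalized signal imaged, each well scored as % active cells relative to rapamycin (7.5 nM) and DMSO controls.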
# Potency means the concentration at half of the fitted maximal effect.
Compound,Potency,"activity, negative = inhibition"
CN(C)CCN(Cc1ccco1)C(=O)c1cc2c(s1)-c1ccccc1OC2,"inconclusive: 9.27 µM [falling, partial curve, poor fit]",
CN(C)CCN(Cc1ccccc1)S(=O)(=O)c1ccc(-c2cc(C(F)(F)F)on2)s1,"inconclusive: 26.1 µM [falling, partial curve, poor fit]",
N#Cc1ccccc1Cn1c(=O)n(CCCC(=O)NCc2ccccc2Cl)c(=O)c2ccccc21,,inconclusive: 26.2% [activator]
CCC(C(=O)N1CCN(c2cc(Cl)ccc2C)CC1)n1nc(C)c2sc3ccccc3c2c1=O (centres undefined),inactive,
CCN1CCOC(=O)C1CC(=O)Nc1cccc(OC)c1 (centres undefined),,inconclusive: 46.9% [activator]
Brc1ccc(CNCCCSc2nnnn2-c2ccccc2)cc1,inactive,
Cc1ccc(CN2CCCn3nc(C(=O)NCc4ccccc4Cl)cc3C2=O)cc1,inactive,
CCCCN(C)CC(O)Cn1cc(/C=C/C(=O)c2ccc(OC)c(OC)c2)c2ccccc21 (centres undefined),"inconclusive: 23.3 µM [falling, single point]",
CC1C(=O)Nc2ccc(S(=O)(=O)Nc3ccccc3Br)cc2NC1=O (centres undefined),inactive,
CCOc1cc(CNCCSc2nnnn2C)ccc1OCc1ccc(Cl)cc1Cl,"inconclusive: 23.3 µM [falling, single point]",
O=C(CSc1nc2c([nH]c3ccccc32)c(=O)n1-c1ccc(Cl)cc1)NCc1ccccc1,"inconclusive: 4.65 µM [falling, single point]",
Cc1ccc2sc(N(CCCN(C)C)C(=O)c3ccco3)nc2c1C,"inconclusive: 13.1 µM [falling, partial curve, poor fit]",
CN(C)c1ccc(C(=O)Nc2sc(Nc3ccccc3)nc2C(N)=O)cc1,"inconclusive: 11.7 µM [falling, partial curve]",
COc1ccccc1-c1cc(C(F)(F)F)nc(S(=O)(=O)CCCC(=O)Nc2ccccc2F)n1,"inconclusive: 16.5 µM [falling, single point]",
O=C(Nc1ccc(Br)cc1F)c1cc(S(=O)(=O)NC2CCCC2)ccc1F,inactive,
O=C(Nc1nnc(SCc2cc(=O)c3ccccc3[nH]2)s1)c1ccccc1,inactive,
Cc1cccc(CS(=O)(=O)c2ncc(Cl)c(C(=O)Nc3nc4ccc(F)cc4s3)n2)c1,"inconclusive: 20.7 µM [falling, single point]",
CCOC(=O)c1ccccc1Nc1cc(C)nc2nc(-c3ccco3)nn12,inactive,
COc1ccc(NC(=O)Cn2cnc3ccc(S(=O)(=O)N4CCC(C)CC4)cc3c2=O)cc1Cl,"inconclusive: 23.3 µM [falling, single point]",
